Measured values published in the supplement of paper PMC6411743.
± gives the standard deviation of the averaged measurements. The list shows a part of the results, in another mix than the full data.

Compound: Nc1ncnc2c1ncn2[C@@H]1O[C@H](COP(=O)(O)OP(=O)(O)OP(=O)(O)O)[C@@H](O)[C@H]1O [adenosine triphosphate]
Test: NP40-soluble protein abundance relative to vehicle (solubility fold change) (ratio); higher = more soluble protein in presence of ATP
Method in brief: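 Across three independent experiments, values are fold changes against the detergent-processed vehicle for each replicate, based on vsn-normalised intensities. The samples were Jurkat crude lysate treated with eight concentrations (0.1 to 10 mM) for 10 min at room temperature and then 3 min at 37 °C. Lysate was solubilised with 0.8% NP40 and benzonase, ultracentrifuged, and the supernatant analysed by TMT-labelled LC-MS/MS.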

Target	NP40-soluble protein abundance (concentration: 1mM)	NP40-soluble protein abundance (concentration: 2mM)	NP40-soluble protein abundance (concentration: 4mM)	NP40-soluble protein abundance (concentration: 6mM)	NP40-soluble protein abundance (concentration: 8mM)	NP40-soluble protein abundance (concentration: 10mM)
C9IZQ1 and related entries (UniProt P43307)	0.975 ± 0.091	1.01 ± 0.085	1.01 ± 0.045	1.01 ± 0.085	0.965 ± 0.02	0.949 ± 0.075
UniProt A4D1P6 and related entries	0.983 ± 0.042	0.926 ± 0.054	0.978 ± 0.056	0.947 ± 0.078	0.915 ± 0.037	0.971 ± 0.078
B4DLJ1 and related entries (UniProt Q15853)	0.937 ± 0.05	0.949 ± 0.044	0.946 ± 0.031	1 ± 0.027	0.934 ± 0.048	0.932 ± 0.016
C9JEH3 and related entries (UniProt Q13685)	1.02 ± 0.091	0.994 ± 0.072	0.981 ± 0.11	1.01 ± 0.069	0.99 ± 0.12	0.962 ± 0.095
RCCD1 (UniProt A6NED2)	0.996 ± 0.022	1.02 ± 0.011	1.04 ± 0.034	1.07 ± 0.063	0.9551 ± 0.002	1.01 ± 0.051
B5MCF9 and related entries (UniProt O00541)	0.9976 ± 0.0083	1.018 ± 0.005	1.01 ± 0.017	0.999 ± 0.019	0.996 ± 0.028	1.04 ± 0.025
A0A140T9D0|Q8NBI6 and related entries (UniProt Q8NBI6)	1.01 ± 0.17	1.03 ± 0.093	1 ± 0.084	0.973 ± 0.19	0.899 ± 0.19	0.953 ± 0.14
D6RDN9 and related entries (UniProt Q15119)	1.18 ± 0.12	1.11 ± 0.034	1.18 ± 0.16	1.12 ± 0.094	1.17 ± 0.15	1.2 ± 0.12
A0A5E8 and related entries (UniProt Q99501)	1.05 ± 0.074	1.14 ± 0.072	1.21 ± 0.028	1.23 ± 0.017	1.23 ± 0.063	1.24 ± 0.056
B4E1Q4 and related entries (UniProt O14730)	0.996 ± 0.054	0.966 ± 0.068	0.952 ± 0.048	0.928 ± 0.064	0.889 ± 0.046	0.906 ± 0.086
HACD1 (UniProt B0YJ81)	1.056 ± 0.0071	1.06 ± 0.019	1.07 ± 0.051	1.05 ± 0.025	1.08 ± 0.038	1.12 ± 0.073
A0A140T9L0|O15213 (UniProt O15213)	1.04 ± 0.088	1.11 ± 0.16	1.29 ± 0.17	1.25 ± 0.051	1.21 ± 0.093	1.33 ± 0.31
UniProt A6QL63 and related entries	0.972 ± 0.081	0.992 ± 0.033	0.994 ± 0.057	0.992 ± 0.034	1.03 ± 0.024	0.979 ± 0.044
B8ZZU6 and related entries (UniProt P15336)	0.905 ± 0.055	0.909 ± 0.062	0.983 ± 0.14	1.02 ± 0.17	0.892 ± 0.055	0.922 ± 0.1
A0A0J9YXM6|I3L1G2 and related entries (UniProt Q562E7)	1 ± 0.079	0.986 ± 0.11	0.986 ± 0.1	0.962 ± 0.15	0.976 ± 0.19	0.969 ± 0.12
B4DIG0 and related entries (UniProt P30305)	0.949 ± 0.16	1.02 ± 0.049	1.06 ± 0.032	1.07 ± 0.015	1 ± 0.068	0.97 ± 0.17
C9J6P4 and related entries (UniProt Q7Z2W4)	1.16 ± 0.013	1.151 ± 0.0077	1.166 ± 0.0062	1.167 ± 0.011	1.18 ± 0.032	1.16 ± 0.03
D6RC04 and related entries (UniProt Q9Y6G5)	0.9692 ± 0.0062	0.964 ± 0.013	0.965 ± 0.013	0.925 ± 0.025	0.981 ± 0.069	0.955 ± 0.018
C9JYM0 and related entries (UniProt O75817)	1.11 ± 0.13	1.06 ± 0.077	1.13 ± 0.16	1.03 ± 0.031	1.04 ± 0.036	1.11 ± 0.077
HMX3 (UniProt A6NHT5)	0.851 ± 0.026	0.915 ± 0.11	0.988 ± 0.032	1.02 ± 0.046	0.841 ± 0.16	0.946 ± 0.17
A2A2V1 and related entries (UniProt P04156+A2A2V1)	1.07 ± 0.066	1 ± 0.091	1.04 ± 0.041	0.973 ± 0.015	0.947 ± 0.021	0.907 ± 0.057
B7Z2R7 and related entries (UniProt Q5T8D3)	0.965 ± 0.042	1.01 ± 0.026	0.9823 ± 0.0063	1.03 ± 0.023	0.967 ± 0.018	0.983 ± 0.0094
B5MCU0 and related entries (UniProt Q9Y2K5)	0.99 ± 0.059	1.01 ± 0.041	1.14 ± 0.018	1.14 ± 0.11	1.04 ± 0.03	1.01 ± 0.037
C9JPC9 and related entries (UniProt Q9H9J4)	0.967 ± 0.091	0.951 ± 0.12	1.03 ± 0.11	1.07 ± 0.19	1.01 ± 0.09	1.03 ± 0.13
A0A0J9YWL0|Q9Y4K1 (UniProt Q9Y4K1)	1 ± 0.018	0.998 ± 0.015	1 ± 0.02	1.02 ± 0.021	1.02 ± 0.025	1.03 ± 0.031
A0A0G2JNC5|A0A0G2JNH7|F8WCM8 and related entries (UniProt O15197)	0.954 ± 0.059	1.08 ± 0.083	1.06 ± 0.12	0.969 ± 0.12	1.04 ± 0.04	1.06 ± 0.065
C9JZB0 and related entries (UniProt Q9BT40)	1.05 ± 0.076	1.02 ± 0.083	1.06 ± 0.061	1.06 ± 0.096	1.11 ± 0.026	1.12 ± 0.067
A6NMQ3 and related entries (UniProt O43768)	0.771 ± 0.098	0.746 ± 0.03	0.75 ± 0.11	0.811 ± 0.016	0.667 ± 0.04	0.725 ± 0.1
A0AVT1	1.01 ± 0.084	0.988 ± 0.074	0.963 ± 0.059	0.958 ± 0.1	0.994 ± 0.044	0.963 ± 0.061
D6REL5 and related entries (UniProt Q6UWZ7)	0.987 ± 0.025	1.02 ± 0.06	1.01 ± 0.035	1.04 ± 0.039	1.02 ± 0.047	1.03 ± 0.05
